Measured values as given in patent US20260108527A1, “POLO LIKE KINASE 4 INHIBITORS” (ORIC Pharmaceuticals, Inc., priority 2022, published 2026).
At least one structure is not confirmed: it was looked up by name or label, or the drawing left a doubt.

By UniProt entry, the sequences of proteins in these tests, tags left out.
UniProt Q96GD4, whole entry: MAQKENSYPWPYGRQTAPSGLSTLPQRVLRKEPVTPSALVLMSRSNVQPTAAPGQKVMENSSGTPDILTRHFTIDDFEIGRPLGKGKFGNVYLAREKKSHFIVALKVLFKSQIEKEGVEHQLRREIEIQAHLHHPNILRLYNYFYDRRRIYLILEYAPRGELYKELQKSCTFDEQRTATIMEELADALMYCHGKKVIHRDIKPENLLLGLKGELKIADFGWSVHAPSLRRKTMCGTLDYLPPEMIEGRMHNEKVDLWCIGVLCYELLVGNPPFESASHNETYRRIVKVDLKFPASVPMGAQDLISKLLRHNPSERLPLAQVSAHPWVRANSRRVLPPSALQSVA

Legend:
[1] = molecular target: T1, human recombinant Aurora B (Homo sapiens, UniProt Q96GD4); assay: Aurora B Kinase Biochemical Assay (ADP-Glo); conditions: selectivity ratio; Aurora B 10 nM, 114 μM ATP
T1 construct: purchased ThermoFisher PR9210B
Experimental: Activity of human recombinant Aurora B (ThermoFisher, cat #PR9210B) was measured by quantification of adenosine diphosphate (ADP) using the ADP-Glo Kinase Assay Kit (Promega, cat #V9102). Test compounds were solubilized in dimethyl sulfoxide (DMSO) and dispensed into 384-well white polystyrene nonbinding plates (Greiner, cat #781094) using the Echo acoustic dispenser (Labcyte Inc.) in a 11-point 3-fold titration in duplicates. 5 μL of 20 nM Aurora B in assay buffer (50 mM HEPES, pH 7.5, 0.01% Brij-35, 0.01% BSA, 10 mM MgCl2, 1 mM EGTA, 1 mM DTT) was added to the plates. Test compounds and Aurora B were incubated for 15 minutes at room temperature (RT). Then 5 μL of a 228 μM adenosine triphosphate (ATP) (Promega, cat #V915B) and 9.3 μM Myelin Basic Protein (MBP) (SignalChem, cat #M42-51N) substrate solution in assay buffer was added and the reaction mixture was incubated for 2 hours at RT. The final concentration of Aurora b, ATP and MBP in the reactions were 10 nM, 114 μM and 4.7 μM, respectively. […] The simultaneous conversion of the remaining ADP to ATP and measurement of the newly synthesized ATP was achieved by addition of 20 μL Kinase Detection reagent (Promega, cat #V9141B), incubation for 30 min at RT, and luminescence detection using the EnVision plate reader (PerkinElmer). […] The IC50 values reported in Table 2 were determined using four parameter non-linear regression curve fit.

[2] = molecular target: T2, human recombinant Aurora A (Homo sapiens, UniProt O14965); assay: Aurora A Kinase Biochemical Assay (ADP-Glo); conditions: selectivity ratio; Aurora A 2.5 nM, 20 μM ATP
T2 construct: purchased ThermoFisher PR5935A
T2 sequence (O14965 1-403): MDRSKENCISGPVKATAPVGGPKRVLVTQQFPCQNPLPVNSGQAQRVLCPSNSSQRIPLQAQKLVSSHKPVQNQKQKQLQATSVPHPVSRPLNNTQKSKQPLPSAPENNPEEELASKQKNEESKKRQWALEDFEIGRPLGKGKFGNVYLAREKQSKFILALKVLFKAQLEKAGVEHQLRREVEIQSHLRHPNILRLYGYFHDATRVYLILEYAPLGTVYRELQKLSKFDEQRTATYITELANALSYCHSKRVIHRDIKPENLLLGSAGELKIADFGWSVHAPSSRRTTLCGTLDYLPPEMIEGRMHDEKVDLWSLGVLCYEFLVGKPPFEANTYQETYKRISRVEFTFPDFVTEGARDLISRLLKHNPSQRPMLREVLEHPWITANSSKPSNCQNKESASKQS
Experimental: Activity of human recombinant Aurora A (ThermoFisher, cat #PR5935A) was measured by quantification of adenosine diphosphate (ADP) using the ADP-Glo Kinase Assay Kit (Promega, cat #V9102). Test compounds were solubilized in dimethyl sulfoxide (DMSO) and dispensed into 384-well white polystyrene nonbinding plates (Greiner, cat #781094) using the Echo acoustic dispenser (Labcyte Inc.) in a 11-point 3-fold titration in duplicates. 5 μL of 5.0 nM Aurora A in assay buffer (50 mM HEPES, pH 7.5, 0.01% Brij-35, 0.01% BSA, 10 mM MgCl2, 1 mM EGTA, 1 mM DTT) was added to the plates. Test compounds and Aurora A were incubated for 15 minutes at room temperature (RT). Then 5 μL of a 40 μM adenosine triphosphate (ATP) (Promega, cat #V915B) and 9.3 μM Myelin Basic Protein (MBP) (SignalChem, cat #M42-51N) substrate solution in assay buffer was added and the reaction mixture was incubated for 2 hours at RT. The final concentration of Aurora A, ATP and MBP in the reactions were 2.5 nM, 20 μM and 4.7 μM, respectively. […] The simultaneous conversion of the remaining ADP to ATP and measurement of the newly synthesized ATP was achieved by addition of 20 μL Kinase Detection reagent (Promega, cat #V914B), incubation for 30 min at RT, and luminescence detection using the EnVision plate reader (PerkinElmer). […] The IC50 values reported in Table 2 were determined using four parameter non-linear regression curve fit.

In the case of `COc1ccc2c(c1)[C@]1(C[C@H]1c1ccc3c(Nc4ccc(C5(N(C)C)COC5)cc4OC)n[nH]c3c1)C(=O)N2` [Example 9, (1R,2S)-2-(3-{4-[3-(dimethylamino)oxetan-3-yl]-2-methoxyanilino}-1H-indazol-6-yl)-5′-methoxyspiro[cyclopropane-1,3′-indol]-2′(1′H)-one], the “[Aurora B IC50 (nM)]/[PLK4 IC50 (nM)]” value [1] is reported as 293.3874 and the “[Aurora A IC50 (nM)]/[PLK4 IC50 (nM)]” value [2] is reported as 421.2296.
